Laboratory results published in paper PMC8224239.

Chains of the proteins cited; added tags and fusions are not shown.
UniProt O95905: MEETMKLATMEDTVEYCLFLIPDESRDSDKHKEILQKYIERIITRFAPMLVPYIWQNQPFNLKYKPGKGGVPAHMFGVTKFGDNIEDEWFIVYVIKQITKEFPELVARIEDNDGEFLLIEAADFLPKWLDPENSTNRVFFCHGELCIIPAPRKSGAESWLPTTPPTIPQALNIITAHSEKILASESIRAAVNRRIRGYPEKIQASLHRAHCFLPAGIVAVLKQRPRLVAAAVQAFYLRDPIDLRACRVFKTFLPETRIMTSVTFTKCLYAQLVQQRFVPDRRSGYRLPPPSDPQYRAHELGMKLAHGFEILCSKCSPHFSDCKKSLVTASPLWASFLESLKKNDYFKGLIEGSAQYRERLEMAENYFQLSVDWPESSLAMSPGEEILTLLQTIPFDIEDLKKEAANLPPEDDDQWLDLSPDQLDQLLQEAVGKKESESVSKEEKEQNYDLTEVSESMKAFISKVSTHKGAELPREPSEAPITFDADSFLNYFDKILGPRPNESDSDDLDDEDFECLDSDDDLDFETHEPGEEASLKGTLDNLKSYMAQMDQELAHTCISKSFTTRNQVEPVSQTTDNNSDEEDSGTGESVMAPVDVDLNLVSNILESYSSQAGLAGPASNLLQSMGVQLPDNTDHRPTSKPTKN
UniProt O75643: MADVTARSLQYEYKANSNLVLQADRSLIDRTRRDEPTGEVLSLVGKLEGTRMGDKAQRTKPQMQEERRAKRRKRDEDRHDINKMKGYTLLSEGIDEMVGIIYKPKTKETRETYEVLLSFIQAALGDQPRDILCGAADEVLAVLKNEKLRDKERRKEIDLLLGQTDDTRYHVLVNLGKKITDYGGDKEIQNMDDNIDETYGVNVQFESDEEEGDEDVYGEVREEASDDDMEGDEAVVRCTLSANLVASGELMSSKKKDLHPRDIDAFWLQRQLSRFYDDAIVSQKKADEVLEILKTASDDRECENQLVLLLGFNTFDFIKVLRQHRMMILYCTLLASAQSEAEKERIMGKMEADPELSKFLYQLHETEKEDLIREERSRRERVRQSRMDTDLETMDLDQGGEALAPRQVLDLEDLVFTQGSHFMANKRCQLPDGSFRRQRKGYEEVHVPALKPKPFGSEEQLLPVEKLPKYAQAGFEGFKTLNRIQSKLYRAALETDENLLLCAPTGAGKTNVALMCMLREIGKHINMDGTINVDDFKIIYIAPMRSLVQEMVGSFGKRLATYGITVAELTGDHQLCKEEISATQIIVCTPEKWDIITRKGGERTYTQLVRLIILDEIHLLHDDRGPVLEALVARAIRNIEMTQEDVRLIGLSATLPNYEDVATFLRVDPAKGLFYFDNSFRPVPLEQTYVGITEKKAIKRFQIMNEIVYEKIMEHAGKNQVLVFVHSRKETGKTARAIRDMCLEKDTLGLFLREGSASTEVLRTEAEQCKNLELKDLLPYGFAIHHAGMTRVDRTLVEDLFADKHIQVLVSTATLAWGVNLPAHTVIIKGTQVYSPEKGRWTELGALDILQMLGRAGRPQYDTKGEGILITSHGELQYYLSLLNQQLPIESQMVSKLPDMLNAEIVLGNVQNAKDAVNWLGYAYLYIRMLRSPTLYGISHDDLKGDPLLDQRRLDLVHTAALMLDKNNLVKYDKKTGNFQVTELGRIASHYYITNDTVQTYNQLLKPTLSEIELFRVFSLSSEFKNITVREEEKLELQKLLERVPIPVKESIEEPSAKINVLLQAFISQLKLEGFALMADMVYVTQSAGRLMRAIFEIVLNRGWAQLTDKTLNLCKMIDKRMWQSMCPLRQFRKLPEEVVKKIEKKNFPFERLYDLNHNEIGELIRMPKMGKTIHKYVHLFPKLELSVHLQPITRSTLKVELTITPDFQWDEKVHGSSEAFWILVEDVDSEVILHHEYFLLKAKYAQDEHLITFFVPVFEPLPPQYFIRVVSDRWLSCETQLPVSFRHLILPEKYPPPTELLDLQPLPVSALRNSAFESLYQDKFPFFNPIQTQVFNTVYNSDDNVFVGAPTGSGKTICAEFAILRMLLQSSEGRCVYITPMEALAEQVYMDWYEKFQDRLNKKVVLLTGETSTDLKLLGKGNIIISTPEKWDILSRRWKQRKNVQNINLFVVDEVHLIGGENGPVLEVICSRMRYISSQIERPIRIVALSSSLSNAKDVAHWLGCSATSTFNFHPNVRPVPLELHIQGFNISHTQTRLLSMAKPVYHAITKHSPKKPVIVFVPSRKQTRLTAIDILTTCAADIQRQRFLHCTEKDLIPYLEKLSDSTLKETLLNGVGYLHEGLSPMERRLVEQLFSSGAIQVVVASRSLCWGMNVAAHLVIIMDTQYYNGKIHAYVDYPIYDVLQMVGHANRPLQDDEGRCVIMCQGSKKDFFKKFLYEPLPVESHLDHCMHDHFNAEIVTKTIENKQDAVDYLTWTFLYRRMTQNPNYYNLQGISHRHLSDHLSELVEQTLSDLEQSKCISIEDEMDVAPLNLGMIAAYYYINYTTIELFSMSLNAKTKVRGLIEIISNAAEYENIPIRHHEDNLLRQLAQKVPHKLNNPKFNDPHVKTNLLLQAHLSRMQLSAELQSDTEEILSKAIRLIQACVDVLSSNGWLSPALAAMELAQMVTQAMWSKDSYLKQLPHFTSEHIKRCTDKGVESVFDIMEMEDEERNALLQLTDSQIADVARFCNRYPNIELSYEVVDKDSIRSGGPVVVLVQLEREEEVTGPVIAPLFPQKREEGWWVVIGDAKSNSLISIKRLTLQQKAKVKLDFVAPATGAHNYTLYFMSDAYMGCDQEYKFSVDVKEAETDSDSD
UniProt Q13838: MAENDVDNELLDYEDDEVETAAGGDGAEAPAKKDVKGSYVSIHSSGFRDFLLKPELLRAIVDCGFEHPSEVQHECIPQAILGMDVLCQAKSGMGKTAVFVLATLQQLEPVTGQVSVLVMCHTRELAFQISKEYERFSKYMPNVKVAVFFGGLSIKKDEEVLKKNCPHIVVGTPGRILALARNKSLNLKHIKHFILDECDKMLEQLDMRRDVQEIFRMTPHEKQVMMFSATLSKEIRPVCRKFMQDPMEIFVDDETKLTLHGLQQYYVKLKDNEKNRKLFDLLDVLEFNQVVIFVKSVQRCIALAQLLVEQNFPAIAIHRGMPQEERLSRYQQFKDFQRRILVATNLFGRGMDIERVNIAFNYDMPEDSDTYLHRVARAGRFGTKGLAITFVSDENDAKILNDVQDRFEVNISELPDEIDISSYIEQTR

Legend:
[1] = molecular target: recombinant ECD protein with an N-terminal glutathione transferase (GST) and a C-terminal FLAG tag (human) (UniProt O95905); assay: affinity purification with mass spectrometry; in vitro tandem affinity purification with recombinant GST-ECD-FLAG as bait for cellular proteins; bound proteins identified by mass spectrometry; only the target purified
[2] = molecular target: FLAG-tagged WT (wild-type) ECD (human) (UniProt O95905); assay: affinity purification with mass spectrometry; FLAG-tagged ECD expressed in HEK-293T cells; affinity purification of ECD-associated proteins; mass spectrometry

Row | binding [1] | binding [2] | Substance
1 | binds | binds | BRR2 (from UniProt O75643 1-2136)
2 | binds | binds | DDX39B (from UniProt Q13838 1-428)

No constants are given. Whether binding was seen depends on the method and setting. Binding seen in cells or lysates may run through a third protein. A yes stands for co-enrichment or nearness to the bait. Other partners may have been found.
